Assay [1] has as its target T1, mouse TMEM95 (transmembrane protein 95) expressed in HEK293T cells (TMEM95-1D4) (mouse) (UniProt P0DJF3).
T1 sequence: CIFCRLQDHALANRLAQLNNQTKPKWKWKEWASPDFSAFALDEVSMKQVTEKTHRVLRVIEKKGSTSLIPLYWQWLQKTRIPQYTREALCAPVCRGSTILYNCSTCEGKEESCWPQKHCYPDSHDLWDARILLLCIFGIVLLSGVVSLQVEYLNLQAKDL
The experiment in a line: co-IP; lysates of HEK293T cells coexpressing IZUMO1 and each of the other proteins; antibody-conjugated Protein A/G magnetic beads, 1 h at 4 °C; lysis buffer 50 mM Tris pH 7.5, 150 mM NaCl, 1% Triton X-100, 10% glycerol, 1 mM DTT; Western blot. For orientation: In western blotting, separated proteins are transferred to a membrane and probed.

The target in the next assay is T2, ADAM1B (UniProt Q8R534).
T2 sequence: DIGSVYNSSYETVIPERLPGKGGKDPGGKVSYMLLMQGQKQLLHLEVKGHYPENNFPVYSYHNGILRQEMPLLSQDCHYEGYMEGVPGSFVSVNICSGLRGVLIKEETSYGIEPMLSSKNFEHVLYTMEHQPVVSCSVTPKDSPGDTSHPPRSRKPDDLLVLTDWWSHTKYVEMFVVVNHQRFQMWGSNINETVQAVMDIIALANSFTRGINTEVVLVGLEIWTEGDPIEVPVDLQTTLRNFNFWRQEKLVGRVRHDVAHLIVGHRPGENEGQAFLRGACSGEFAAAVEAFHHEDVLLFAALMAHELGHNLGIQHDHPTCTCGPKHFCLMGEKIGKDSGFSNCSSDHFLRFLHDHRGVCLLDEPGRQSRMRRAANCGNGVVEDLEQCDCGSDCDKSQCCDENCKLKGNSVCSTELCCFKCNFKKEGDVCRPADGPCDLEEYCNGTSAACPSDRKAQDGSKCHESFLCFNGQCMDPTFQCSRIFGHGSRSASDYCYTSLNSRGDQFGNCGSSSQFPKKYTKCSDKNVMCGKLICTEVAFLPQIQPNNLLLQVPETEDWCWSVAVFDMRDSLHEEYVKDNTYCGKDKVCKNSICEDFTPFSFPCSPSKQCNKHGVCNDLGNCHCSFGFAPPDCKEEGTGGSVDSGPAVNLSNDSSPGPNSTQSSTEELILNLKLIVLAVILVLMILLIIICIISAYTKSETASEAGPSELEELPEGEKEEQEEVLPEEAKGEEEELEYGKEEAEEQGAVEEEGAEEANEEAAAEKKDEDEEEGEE
Described as above.

No constants are given. Whether binding was seen depends on the method and setting. In cells and extracts the contact can be indirect. Some binding calls cover weakened binding; strength is not graded here.

B1: recombinant mouse IZUMO1 expressed in HEK293T cells (IZUMO1-mCherry) (protein, UniProt Q9D9J7 22-397)
chain: CIKCDQFVTDALKTFENTYLNDHLPHDIHKNVMRMVNHEVSSFGVVTSAEDSYLGAVDENTLEQATWSFLKDLKRITDSDLKGELFIKELLWMLRHQKDIFNNLARQFQKEVLCPNKCGVMSQTLIWCLKCEKQLHICRKSLDCGERHIEVHRSEDLVLDCLLSWHRASKGLTDYSFYRVWENSSETLIAKGKEPYLTKSMVGPEDAGNYRCVLDTINQGHATVIRYDVTVLPPKHSEENQPPNIITQEEHETPVHVTPQTPPGQEPESELYPELHPELYPELIPTVAQNPEKKMKTRLLILLTLGFVVLVASIIISVLHFRKVSAKLKNASDEVKPTASGSKSDQSLSQQMGLKKASQADFNSDYSGDKSEATEN
As to B1, the binding entry is given as “binds” in assay [1] and “no binding” in the assay with ADAM1B.
